The target of assay [1] is CmWC-1-His (Cordyceps militaris) (UniProt G3J3J5). Description: pull-down; CmWC-1-His or CmVVD-His held on His-megbeads, mixed with CmWC-2-GST, CmWC-3-GST or GST, 4°C for 1 h; washed with 50 mM Tris, 300 mM NaCl, 20 mM imidazole; eluted with 250 mM imidazole; eluent and bead residues read by western blot; both purified.
Assay [2] addresses CmVVD-His (Cordyceps militaris) (UniProt G3JFF2). The assay is described as above.

Protein sequences, listed by entry. Tags and fused reporters are not part of them. Lines headed by an entry give the natural chain unless they say otherwise; changes in a name come on top.
UniProt G3J3J5: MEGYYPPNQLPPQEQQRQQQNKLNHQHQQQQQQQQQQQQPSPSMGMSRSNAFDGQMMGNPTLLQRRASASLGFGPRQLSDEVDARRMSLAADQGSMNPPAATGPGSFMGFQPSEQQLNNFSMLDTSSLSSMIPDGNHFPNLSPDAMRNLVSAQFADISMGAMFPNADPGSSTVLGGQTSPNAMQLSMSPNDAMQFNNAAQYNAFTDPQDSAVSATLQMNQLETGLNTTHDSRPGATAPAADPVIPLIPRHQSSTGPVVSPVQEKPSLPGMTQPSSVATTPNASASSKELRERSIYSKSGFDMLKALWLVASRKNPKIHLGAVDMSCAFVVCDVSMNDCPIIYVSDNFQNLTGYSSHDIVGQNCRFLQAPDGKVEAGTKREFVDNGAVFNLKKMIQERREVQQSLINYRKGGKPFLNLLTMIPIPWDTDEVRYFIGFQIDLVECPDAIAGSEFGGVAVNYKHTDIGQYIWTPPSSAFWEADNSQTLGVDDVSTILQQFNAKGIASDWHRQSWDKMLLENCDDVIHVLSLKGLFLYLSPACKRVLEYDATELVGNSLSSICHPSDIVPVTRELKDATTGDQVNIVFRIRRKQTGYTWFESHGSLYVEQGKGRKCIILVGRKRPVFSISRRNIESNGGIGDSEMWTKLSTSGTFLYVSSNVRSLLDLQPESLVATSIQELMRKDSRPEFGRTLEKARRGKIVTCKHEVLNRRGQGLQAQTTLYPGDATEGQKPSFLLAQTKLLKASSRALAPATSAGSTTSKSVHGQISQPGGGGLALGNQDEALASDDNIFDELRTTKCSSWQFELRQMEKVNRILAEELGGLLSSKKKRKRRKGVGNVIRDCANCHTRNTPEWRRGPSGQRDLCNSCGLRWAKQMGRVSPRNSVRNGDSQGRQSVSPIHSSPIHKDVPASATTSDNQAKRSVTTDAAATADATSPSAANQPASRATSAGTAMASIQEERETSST
UniProt G3JFF2: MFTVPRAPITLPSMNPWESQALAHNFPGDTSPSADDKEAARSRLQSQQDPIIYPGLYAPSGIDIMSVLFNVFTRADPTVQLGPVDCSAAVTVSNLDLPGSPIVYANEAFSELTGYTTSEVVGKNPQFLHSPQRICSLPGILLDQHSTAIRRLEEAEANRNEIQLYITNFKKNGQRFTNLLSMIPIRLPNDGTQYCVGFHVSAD
UniProt G3J745: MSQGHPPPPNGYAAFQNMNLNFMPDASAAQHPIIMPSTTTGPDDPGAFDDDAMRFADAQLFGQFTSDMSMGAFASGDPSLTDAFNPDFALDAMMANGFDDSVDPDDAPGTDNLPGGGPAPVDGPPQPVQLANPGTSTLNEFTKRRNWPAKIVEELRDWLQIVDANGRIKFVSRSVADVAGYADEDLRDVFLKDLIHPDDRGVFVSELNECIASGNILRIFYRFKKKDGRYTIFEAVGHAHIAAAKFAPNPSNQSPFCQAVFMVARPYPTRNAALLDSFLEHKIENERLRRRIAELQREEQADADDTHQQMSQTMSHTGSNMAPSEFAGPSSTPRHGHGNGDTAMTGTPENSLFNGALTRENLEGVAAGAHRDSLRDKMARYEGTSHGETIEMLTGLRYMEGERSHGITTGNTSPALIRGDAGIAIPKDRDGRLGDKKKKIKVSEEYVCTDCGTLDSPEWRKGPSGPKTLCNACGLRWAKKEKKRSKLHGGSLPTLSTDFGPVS
UniProt G3J672: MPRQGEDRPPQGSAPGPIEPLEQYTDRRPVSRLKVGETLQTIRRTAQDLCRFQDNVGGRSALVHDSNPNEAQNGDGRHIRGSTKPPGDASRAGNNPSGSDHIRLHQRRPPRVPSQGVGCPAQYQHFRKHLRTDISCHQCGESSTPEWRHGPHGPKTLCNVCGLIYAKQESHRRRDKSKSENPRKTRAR

These are yes or no findings as the source states them, for the method shown. A result given as binding can be weak or reduced; the word gives no strength.

As to CmWC-2-GST (from UniProt G3J745), the binding entry in assay [1] and in assay [2] was “binds” each time.

On to CmWC-3-GST (from UniProt G3J672), for which the binding entry in assay [1] and in assay [2] was “binds” throughout.

These data come from publication PMC10126257, “Genome resequencing and transcriptome analysis reveal the molecular mechanism of albinism in Cordyceps militaris”.
